B1: Q06890 (protein, UniProt Q06890 1-448, looked up)
chain: MKILLLCVALLLIWDNGMVLGEQEVSDNELQELSTQGSRYINKEIQNAVQGVKHIKTLIEKTNAERKSLLNSLEEAKKKKEDALEDTRDSEMKLKAFPEVCNETMMALWEECKPCLKHTCMKFYARVCRSGSGLVGQQLEEFLNQSSPFYFWMNGDRIDSLLESDRQQSQVLDAMQDSFARASGIIDTLFQDRFFARELHDPHYFSPIGFPHKRPHFLYPKSRLVRSLMSPSHYGPPSFHNMFQPFFEMIHQAQQAMDVQLHSPAFQFPDVDFLREGEDDRTVCKEIRRNSTGCLKMKGQCEKCQEILSVDCSTNNPAQANLRQELNDSLQVAERLTEQYKELLQSFQSKMLNTSSLLEQLNDQFNWVSQLANLTQGEDKYYLRVSTVTTHSSDSEVPSRVTEVVVKLFDSDPITVVLPEEVSKDNPKFMDTVAEKALQEYRRKSRAE
modifications: full-length
B2: P01670 (protein, UniProt P01670 1-111, looked up)
chain: DIVLTQSPASLAVSLGQRATISCRASKSVSTSGYSYMHWYQQKPGQPPKLLIYLASNLESGVPARFSGSGSGTDFTLNIHPVEEEDAATYYCQHSRELPRTFGGGTKLEIK
modifications: full-length
B3: O35490 (protein, UniProt O35490 1-407, looked up)
chain: MAPVAGKKAKKGILERLNAGEVVIGDGGFVFALEKRGYVKAGPWTPEAAVEHPEAVRQLHREFLRAGSNVMQTFTFYASEDKLENRGNYVAEKISGQKVNEAACDIARQVADEGDALVAGGVSQTPSYLSCKSEVEVKKIFRQQLEVFMKKNVDFLIAEYFEHVEEAVWAVEALKASGKPVAATMCIGPEGDLHGVPPGECAVRLVKAGASIVGVNCHFDPSVSLQTVKLMKEGLEAARLKAYLMSQPLAYHTPDCGKQGFIDLPEFPFGLEPRVATRWDIQKYAREAYNLGVRYIGGCCGFEPYHIRAIAEELAPERGFLPPASEKHGSWGSGLDMHTKPWIRARARKEYWQNLRIASGRPYNPSMSRPDAWGVTKGAAELMQQKEATTEQQLRELFEKQKFKSAQ
modifications: full-length
B4: Q00897 (protein, UniProt Q00897 1-413, looked up)
chain: MTPSISWSLLLLAGLCCLVPSFLAEDVQETDTSQKDQSPASHEIATNLGDFALRLYRELVHQSNTSNIFFSPVSIATAFAMLSLGSKGDTHTQILEGLQFNLTQTSEADIHKSFQHLLQTLNRPDSELQLSTGNGLFVNNDLKLVEKFLEEAKNHYQAEVFSVNFAESEEAKKVINDFVEKGTQGKIVEAVKKLDQDTVFALANYILFKGKWKQPFDPENTEEAEFHVDESTTVKVPMMTLSGMLDVHHCSMLSSWVLLMDYAGNTTAVFLLPDDGKMQHLEQTLNKELISQFLLNRRRSDAQIHIPRLSISGNYNLKTLMSPLGITRIFNNGADLSGITEENAPLKLSKAVHKAVLTIDETGTEAAAATVLQVATYSMPPIVRFDHPFLFIIFEEHTQSPIFVGKVVDPTHK
modifications: full-length
B5: P01659 (protein, UniProt P01659 1-112, looked up)
chain: DIVLTQSPASLAVSLGQRATISCRASZSVNWYGNSFMZWYZZKPGZPPKLLIYRASNLZSGIPARFSGSGSRTBFTLTIBPVZABDVATYFCZZSBZAPWTFGSGTKLEIKR
modifications: full-length
B6: Q9ET01 (protein, UniProt Q9ET01 1-850, looked up)
chain: MAKPLTDQEKRRQISIRGIVGVENVAELKKGFNRHLHFTLVKDRNVATPRDYYFALAHTVRDHLVGRWIRTQQHYYDKCPKRVYYLSLEFYMGRTLQNTMINLGLQNACDEAIYQLGLDMEELEEIEEDAGLGNGGLGRLAACFLDSMATLGLAAYGYGIRYEYGIFNQKIREGWQVEEADDWLRHGNPWEKARPEFMLPVHFYGRVEHTQTGTKWVDTQVVLALPYDTPVPGYMNNTVNTMRLWSARAPNDFNLQDFNVGDYIQAVLDRNLAENISRVLYPNDNFFEGKELRLKQEYFVVAATLQDVIRRFKASKFGSKDGMGTVFDAFPDQVAIQLNDTHPALAIPELMRIFVDIEKLPWAKAWEITKKTFAYTNHTVLPEALERWPVELVEKLLPRHLEIIYEINQKHLDRIVALFPKDISRMRRMSLIEEEGGKRINMAHLCIVGCHAVNGVAKIHSDIVKTQVFKDFSELEPDKFQNKTNGITPRRWLLLCNPGLADLIAEKIGEDYVKDLSQLTKLHSFVSDDIFLREIAKVKQENKLKFSQFLEKEYKVKINPSSMFDVHVKRIHEYKRQLLNCLHVITMYNRIKKDPKKFFVPRTVIIGGKAAPGYHMAKMIIKLITSVAEVVNNDPMVGSKLKVIFLENYRVSLAEKVIPATDLSEQISTAGTEASGTGNMKFMLNGALTIGTMDGANVEMAEEAGEENLFIFGMRVDDVAALDKKGYEAKEYYEALPELKLVIDQIDNGFFSPNQPDLFKDIINMLFYHDRFKVFADYEAYVKCQEKVSQLYMNQKAWNTMVLKNIAASGKFSSDRTIKEYAKDIWNMEPSDLKISLSNESSNGVSANGK
modifications: full-length
B7: P01644 (protein, UniProt P01644 1-108, looked up)
chain: DIQMTQTTSSLSASLGDRVTISCRASQDISNYLNWYQQKPDGTVKLLIYYTSRLHSGVPSRFSGSGSGTDYSLTISNLEQEDIATYFCQQGNSLPRTFGGGTKLEIKR
modifications: full-length
B8: P22599 (protein, UniProt P22599 1-413, looked up)
chain: MTPSISWGLLLLAGLCCMVPSFLAEDVQETDTSQKDQSPASHEIATNLGDFAISLYRELVHQSNTSNIFFSPVSIATAFAMLSLGSKGDTHTQILEGLQFNLTQTSEADIHKSFQHLLQTLNRPDSELQLSTGNGLFVNNDLKLVEKFLEEAKNHYQAEVFSVNFAESEEAKKVINDFVEKGTQGKIVEAVKELDQDTVFALANYILFKGKWKKPFDPENTEEAEFHVDKSTTVKVPMMMLSGMLDVHHCSILSSWVLLMDYAGNASAVFLLPEDGKMQHLEQTLNKELISKILLNRRRRLVQIHIPRLSISGDYNLKTLMSPLGITRIFNNGADLSGITEENAPLKLSKAVHKAVLTIDETGTEAAAATVFEAVPMSMPPILRFDHPFLFIIFEEHTQSPIFVGKVVDPTHK
modifications: full-length
B9: P01637 (protein, UniProt P01637 1-128, looked up)
chain: MRTPAQFLGILLLWFPGIKCDIKMTQSPSSMYASLGERVTISCKASQDINSYLTWFQQKPGKSPKTLLYRANRLVDGVPSRFSGSGSGQDFSLTISSLEYEDMGIYYCLQYDEFPLTFGAGTKLELKR
modifications: full-length
B10: Q9D8N0 (protein, UniProt Q9D8N0 1-437, looked up)
chain: MAAGTLYTYPENWRAFKALIAAQYSGAQVRVLSAPPHFHFGQTNRTPEFLRKFPAGKVPAFEGDDGFCVFESNAIAYYVSNEELRGSTPEAAAQVVQWVSFADSDIVPPASTWVFPTLGIMHHNKQATENAKEEVKRILGLLDTHLKTRTFLVGERVTLADITVVCTLLWLYKQVLEPSFRQAFPNTNRWFLTCINQPQFRAILGEVKLCEKMAQFDAKKFAESQPKKDTPRKEKGSREEKQKPQAERKEEKKAAAPAPEEEMDECEQALAAEPKAKDPFAHLPKSTFVLDEFKRKYSNEDTLSVALPYFWEHFDKDGWSLWYAEYRFPEELTQTFMSCNLITGMFQRLDKLRKNAFASVILFGTNNSSSISGVWVFRGQELAFPLSPDWQVDYESYTWRKLDPGSEETQTLVREYFSWEGTFQHVGKAVNQGKIFK
modifications: full-length
B11: P24270 (protein, UniProt P24270 1-527, looked up)
chain: MSDSRDPASDQMKQWKEQRASQRPDVLTTGGGNPIGDKLNIMTAGSRGPLLVQDVVFTDEMAHFDRERIPERVVHAKGAGAFGYFEVTHDITRYSKAKVFEHIGKRTPIAVRFSTVTGESGSADTVRDPRGFAVKFYTEDGNWDLVGNNTPIFFIRDAILFPSFIHSQKRNPQTHLKDPDMVWDFWSLRPESLHQVSFLFSDRGIPDGHRHMNGYGSHTFKLVNADGEAVYCKFHYKTDQGIKNLPVGEAGRLAQEDPDYGLRDLFNAIANGNYPSWTFYIQVMTFKEAETFPFNPFDLTKVWPHKDYPLIPVGKLVLNKNPVNYFAEVEQMAFDPSNMPPGIEPSPDKMLQGRLFAYPDTHRHRLGPNYLQIPVNCPYRARVANYQRDGPMCMHDNQGGAPNYYPNSFSAPEQQRSALEHSVQCAVDVKRFNSANEDNVTQVRTFYTKVLNEEERKRLCENIAGHLKDAQLFIQKKAVKNFTDVHPDYGARIQALLDKYNAEKPKNAIHTYTQAGSHMAAKGKANL
modifications: full-length

tested on: CA19-9 modified proteins; assay: CA19-9 IP/MS (iTRAQ) of organoid conditioned media after Dox treatment; design: species or system mouse; conditions: CA19-9 IP/MS relative abundance; A217 (genetic negative) organoid conditioned media, 0H (before treatment), IP with NS19-9; reference channel = 1

In order of rising “17 0H NS19” value:
1. B1  1
2. B2  1
3. B3  1
4. B4  1
5. B5  1
6. B6  1
7. B7  1
8. B8  1
9. B9  1
10. B10  1
11. B11  1

same assay, conditions: CA19-9 IP/MS relative abundance; A217 (genetic negative) organoid conditioned media, after 8 hours, IP with 5B1

In order of rising “17 8H 5B1” value:
1. B7  0.072
2. B2  0.095
3. B9  0.158
4. B8  0.39
5. B4  0.397
6. B5  0.746
7. B6  2.313
8. B11  3.427
9. B1  3.943
10. B10  3.944
11. B3  4.685

same assay, conditions: CA19-9 IP/MS relative abundance; A217 (genetic negative) organoid conditioned media, after 8 hours, IP with NS19-9

In order of rising “17 8H NS19” value:
1. B3  0.438
2. B11  0.606
3. B6  0.651
4. B9  0.661
5. B5  0.711
6. B10  0.711
7. B8  1.003
8. B4  1.015
9. B2  1.113
10. B7  1.128
11. B1  1.306

same assay, conditions: CA19-9 IP/MS relative abundance; A220 (C;R^LSL;F) organoid conditioned media, 0H (before treatment), IP with 5B1

In order of rising “20 0H 5B1” value:
1. B7  0.045
2. B2  0.066
3. B9  0.133
4. B8  0.277
5. B4  0.282
6. B5  0.652
7. B1  1.709
8. B6  1.898
9. B11  3.106
10. B10  3.488
11. B3  4.172

From patent US12378320B2, “Methods for treating pancreatitis” (Cold Spring Harbor Laboratory, priority 2018, dated 2025)
